Test systems include C. auris AR-384; C. auris AR-386; C. auris AR-387.
Experiment in all cases: growth relative to vehicle control (OD600 ratio) (fraction); higher = less inhibition
Common to all, as to details: 24 h

Counter-ions that a name gives are not always drawn. The list shows a part of the results. Many values rest on one well or one pass, so single values are uncertain.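 Three clinical Candida auris isolates (clades III, IV and I) from the CDC resistance isolate bank were grown in RPMI-1640 at 35°C. Growth was background-corrected OD600 relative to same-plate vehicle-only wells. Hits required over 50% inhibition in at least two strains and a plate-corrected B-score above 0.1.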

Turning to `CCCN(CCC)C(=O)C1=Cc2ccc(-c3ccc(C(=O)N4CCCC4)cc3)cc2N=C(N)C1` [Motolimod (VTX-2337)], the growth in the assay on C. auris AR-384 (1 µM) stood at 0.74; in the assay on C. auris AR-384 (10 µM), 0.96; in the assay with C. auris AR-386 (1 µM), 1.1; with C. auris AR-386 (10 µM), 0.72; in the assay on C. auris AR-387 (1 µM) it was 0.59; with C. auris AR-387 (10 µM) it was 0.63.

For the molecule `COc1ccc(Cl)cc1C(=O)NCCc1ccc(S(=O)(=O)NC(=O)NC2CCCCC2)cc1` [Glyburide (Glibenclamide)], the growth was found to be 1.12 with C. auris AR-384 (1 µM); 0.79 in the assay with C. auris AR-384 (10 µM); 0.94 in the assay on C. auris AR-386 (1 µM); 1.26 in the assay with C. auris AR-386 (10 µM); 0.93 in the assay on C. auris AR-387 (1 µM); 0.95 in the assay on C. auris AR-387 (10 µM).

`CN(C)[C@@H]1C(O)=C(C(N)=O)C(=O)[C@@]2(O)C(O)=C3C(=O)c4c(O)cccc4[C@@](C)(O)[C@H]3[C@H](O)[C@@H]12` [Oxytetracycline (Terramycin)]: the growth with C. auris AR-384 (1 µM) came to 0.77; in the assay with C. auris AR-384 (10 µM), 0.88; in the assay with C. auris AR-386 (1 µM), 0.65; with C. auris AR-386 (10 µM) it was 0.61; in the assay with C. auris AR-387 (1 µM), 0.55; with C. auris AR-387 (10 µM) it was 0.65.

As to `CCOc1ccccc1OCCN[C@H](C)Cc1ccc(OC)c(S(N)(=O)=O)c1` [Tamsulosin hydrochloride], the growth was found to be 0.79 in the assay on C. auris AR-384 (1 µM); 0.73 in the assay with C. auris AR-384 (10 µM); 0.85 with C. auris AR-386 (1 µM); 0.56 in the assay with C. auris AR-386 (10 µM); 0.75 in the assay with C. auris AR-387 (1 µM); 0.8 in the assay on C. auris AR-387 (10 µM).

With `Cc1cc(C(C)(C)C)cc(C)c1CC1=NCCN1` [Xylometazoline HCl], the growth in the assay on C. auris AR-384 (1 µM) was found to be 0.94; in the assay on C. auris AR-384 (10 µM), 0.75; in the assay with C. auris AR-386 (1 µM), 0.88; with C. auris AR-386 (10 µM), 0.57; in the assay on C. auris AR-387 (1 µM) it was 0.59; in the assay with C. auris AR-387 (10 µM), 0.76.

Regarding `OC[C@@H](O)[C@@H](O)[C@H](O)[C@@H](O)CO` [Sorbitol], the growth in the assay on C. auris AR-384 (1 µM) is 0.98; with C. auris AR-384 (10 µM), 0.82; with C. auris AR-386 (1 µM), 1.05; in the assay with C. auris AR-386 (10 µM) it was 1.11; in the assay on C. auris AR-387 (1 µM) it was 1.09; with C. auris AR-387 (10 µM) it was 0.88.

As to `Nc1ccc(C(=O)NCC(=O)O)cc1` [Sodium 4-aminohippurate Hydrate], the growth was 1.07 in the assay with C. auris AR-384 (1 µM); 1.07 in the assay with C. auris AR-384 (10 µM); 1.13 in the assay on C. auris AR-386 (1 µM); 1.14 with C. auris AR-386 (10 µM); 0.91 in the assay on C. auris AR-387 (1 µM); 1.24 in the assay with C. auris AR-387 (10 µM).

On to `O=C1C2CC3CC1CC(O)(C3)C2` [Idramantone], for which the growth in the assay with C. auris AR-384 (1 µM) is 0.95; with C. auris AR-384 (10 µM), 0.72; in the assay on C. auris AR-386 (1 µM) it was 0.65; with C. auris AR-386 (10 µM) it was 0.94; in the assay on C. auris AR-387 (1 µM) it was 0.93; in the assay on C. auris AR-387 (10 µM), 0.85.

Consider `C[C@H](NCc1ccc(OCc2cccc(F)c2)cc1)C(N)=O` [Safinamide Mesylate], for which the growth in the assay with C. auris AR-384 (1 µM) turned out to be 0.78; in the assay on C. auris AR-384 (10 µM), 0.89; in the assay on C. auris AR-386 (1 µM), 1.16; in the assay on C. auris AR-386 (10 µM), 0.95; in the assay with C. auris AR-387 (1 µM), 0.93; with C. auris AR-387 (10 µM) it was 0.94.

Turning to `NC(=O)N/N=C/c1ccc([N+](=O)[O-])o1` [Nitrofural], the growth in the assay on C. auris AR-384 (1 µM) stood at 0.64; with C. auris AR-384 (10 µM), 0.47; in the assay on C. auris AR-386 (1 µM), 0.89; in the assay on C. auris AR-386 (10 µM), 0.79; in the assay on C. auris AR-387 (1 µM) it was 0.94; in the assay with C. auris AR-387 (10 µM), 0.81.

Take `CCN(Cc1ccncc1)C(=O)C(CO)c1ccccc1` (stereo not drawn) [Tropicamide]: the growth turned out to be 0.91 with C. auris AR-384 (1 µM); 1.18 in the assay on C. auris AR-384 (10 µM); 1.19 in the assay with C. auris AR-386 (1 µM); 1.08 in the assay with C. auris AR-386 (10 µM); 1.03 with C. auris AR-387 (1 µM); 1.05 with C. auris AR-387 (10 µM).

`N.N.O=C([O-])C[O-].[Pt+2]` [Nedaplatin]: the growth in the assay with C. auris AR-384 (1 µM) was 0.7; in the assay with C. auris AR-384 (10 µM), 1.28; in the assay on C. auris AR-386 (1 µM), 0.71; in the assay with C. auris AR-386 (10 µM), 1.28; in the assay on C. auris AR-387 (1 µM) it was 1.03; in the assay on C. auris AR-387 (10 µM) it was 1.17.

For the molecule `Cc1ccc(Nc2nccc(N(C)c3ccc4c(C)n(C)nc4c3)n2)cc1S(N)(=O)=O`, the growth in the assay with C. auris AR-384 (1 µM) worked out at 0.86; with C. auris AR-384 (10 µM), 0.66; in the assay with C. auris AR-386 (1 µM), 0.65; in the assay on C. auris AR-386 (10 µM), 0.78; with C. auris AR-387 (1 µM), 0.98; in the assay on C. auris AR-387 (10 µM), 0.83.

For `CC(C)(C)NCC(O)COc1cccc2c1CCC(=O)N2` (stereo not drawn) [Carteolol HCl], the growth with C. auris AR-384 (1 µM) is 0.79; with C. auris AR-384 (10 µM), 0.99; with C. auris AR-386 (1 µM) it was 0.8; with C. auris AR-386 (10 µM), 0.84; in the assay on C. auris AR-387 (1 µM), 0.67; in the assay on C. auris AR-387 (10 µM), 0.68.

As for `NNC(=O)c1ccncc1` [Isoniazid], the growth in the assay with C. auris AR-384 (1 µM) was 1.06; in the assay with C. auris AR-384 (10 µM), 1; with C. auris AR-386 (1 µM), 1.09; with C. auris AR-386 (10 µM), 0.94; with C. auris AR-387 (1 µM), 0.64; in the assay with C. auris AR-387 (10 µM), 0.57.

For the molecule `COC(=O)C1=C(C)NC(C)=C(C(=O)OCCN2CCN(C(c3ccccc3)c3ccccc3)CC2)C1c1cccc([N+](=O)[O-])c1` (stereo not drawn) [Manidipine 2HCl], the growth is 0.94 with C. auris AR-384 (1 µM); 0.99 with C. auris AR-384 (10 µM); 0.67 with C. auris AR-386 (1 µM); 0.56 in the assay on C. auris AR-386 (10 µM); 0.84 in the assay on C. auris AR-387 (1 µM); 1.15 in the assay with C. auris AR-387 (10 µM).

As to `NC(=O)c1ccc(I)c([N+](=O)[O-])c1` [Iniparib (BSI-201)], the growth in the assay on C. auris AR-384 (1 µM) worked out at 0.91; in the assay on C. auris AR-384 (10 µM), 1.05; with C. auris AR-386 (1 µM) it was 0.91; with C. auris AR-386 (10 µM), 0.59; in the assay with C. auris AR-387 (1 µM), 0.64; in the assay on C. auris AR-387 (10 µM), 0.69.

As for `C[C@@H]1C[C@H]2[C@@H]3CCC4=CC(=O)C=C[C@]4(C)[C@@]3(F)[C@@H](O)C[C@]2(C)[C@@]1(O)C(=O)CO` [Dexamethasone (DHAP)], the growth in the assay with C. auris AR-384 (1 µM) is 0.79; with C. auris AR-384 (10 µM), 1.24; in the assay on C. auris AR-386 (1 µM), 1.09; in the assay on C. auris AR-386 (10 µM), 0.68; in the assay with C. auris AR-387 (1 µM) it was 0.67; with C. auris AR-387 (10 µM), 0.72.

As to `COc1cc(Cc2cnc(N)nc2N)cc(OC)c1OC` [Trimethoprim], the growth with C. auris AR-384 (1 µM) is 0.96; in the assay on C. auris AR-384 (10 µM), 1.01; with C. auris AR-386 (1 µM), 0.93; in the assay with C. auris AR-386 (10 µM), 0.93; with C. auris AR-387 (1 µM), 0.98; in the assay on C. auris AR-387 (10 µM), 0.7.

With `Nc1ccc(S(=O)(=O)c2ccc(N)cc2)cc1` [Dapson], the growth was 0.91 with C. auris AR-384 (1 µM); 0.93 in the assay with C. auris AR-384 (10 µM); 1.08 in the assay on C. auris AR-386 (1 µM); 1.06 in the assay on C. auris AR-386 (10 µM); 1.02 with C. auris AR-387 (1 µM); 1.08 in the assay with C. auris AR-387 (10 µM).

For `O=C(c1ccc(F)c(F)c1Nc1ccc(I)cc1F)N1CC(O)([C@@H]2CCCCN2)C1` [Cobimetinib (GDC-0973, RG7420)], the growth was determined as 1.39 in the assay with C. auris AR-384 (1 µM); 1.26 in the assay with C. auris AR-384 (10 µM); 0.99 in the assay on C. auris AR-386 (1 µM); 1.03 in the assay on C. auris AR-386 (10 µM); 1.04 in the assay with C. auris AR-387 (1 µM); 1.03 with C. auris AR-387 (10 µM).

Take `CN1CCN(CCCN2c3ccccc3Sc3ccc(C(F)(F)F)cc32)CC1` [Trifluoperazine 2HCl]: the growth is 0.88 with C. auris AR-384 (1 µM); 1.25 in the assay on C. auris AR-384 (10 µM); 1.04 in the assay with C. auris AR-386 (1 µM); 1.07 in the assay on C. auris AR-386 (10 µM); 1 in the assay with C. auris AR-387 (1 µM); 0.97 in the assay on C. auris AR-387 (10 µM).

Regarding `O=C(O)c1cccnc1` [Nicotinic Acid], the growth with C. auris AR-384 (1 µM) came to 0.64; in the assay on C. auris AR-384 (10 µM), 1.04; in the assay on C. auris AR-386 (1 µM) it was 1.06; in the assay on C. auris AR-386 (10 µM), 0.89; in the assay with C. auris AR-387 (1 µM), 0.73; with C. auris AR-387 (10 µM) it was 0.97.

Values taken from the supplement of paper PMC10470496.
